Measured values published in article PMC4658182, “The Synthetic Antimicrobial Peptide 19-2.5 Interacts with Heparanase and Heparan Sulfate in Murine and Human Sepsis” (PLoS ONE, 2015).

Test: Control experiments for heparan sulfate ELISA (interference by peptide)

peptide 19–2.5: synthetic antimicrobial peptide 19–2.5 belongs to the class of synthetic anti-lipopolysaccharide peptides (SALP = synthetic anti-LPS peptides)
detection of peptide by the HS ELISA (20μg/ml peptide in physiological saline (0.9%)): no detection
effect of peptide on detected HS concentration (peptide added to ELISA positive control (300ng/ml heparan sulfate)): did not alter the detected HS concentration
